Results reported in PubChem BioAssay AID220 (DTP/NCI, 2004).
The list shows only some results of the screen, not a fair sample: it is rich in T/C values a quarter to a half above the control, in often repeated tests (any T/C) and in doses without a T/C. Other doses and runs of a compound stand elsewhere. T/C is the treated group as % of the vehicle group. Schedule codes are those of the source, taken here to give the interval after Q, in days (D) or hours (H), and the number of doses after X. Some T/C values carry the count of animals alive at the toxicity check (mostly the fifth day); where none is given, no animal had died by that day. Some entries give survivors of the animals treated and no T/C: the source files T/C as zero there, which appears to mark a toxic dose or a test without result, not a measured value. Counts of survivors are from the toxicity check (mostly the fifth day) where no day follows; animals may have died later. Some entries were tested several times; the results are listed from low to high.

System: CD8F1 mice, subcutaneous mammary adenocarcinoma, T/C%
Test: NCI In Vivo Anticancer Drug Screen. Data for tumor model Mammary Adenocarcinoma CD8F1 (subcutaneous) in CD8F1
Conditions: higher T/C = larger tumour
Outline: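 Ratio of treated to vehicle-control outcome, based on either survival or tumor size, in mice bearing transplantable tumors given the test compound.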

[1] = T/C endpoint: median tumor weight (est.), dose: 25.0 mg/kg/injection, schedule: Q07DX005 (ip), vehicle: saline with Tween-80, evaluated on day 30
[2] = T/C endpoint: median tumor weight change, dose: 500.0 mg/kg/injection, schedule: Q01DX001 (ip), vehicle: saline with Tween-80
[3] = T/C endpoint: median tumor weight change, dose: 2000.0 mg/kg/injection, schedule: Q01DX001 (ip), vehicle: saline with Tween-80

SMILES: O=[N+]([O-])O.O=[N+]([O-])O.[NH-]C1CCCCC1[NH-].[Pt+2] (centres undefined)
- T/C (T/C endpoint: median tumor weight (est.), dose: 2.0 mg/kg/injection, schedule: Q07DX005 (ip), vehicle: dextrose, evaluated on day 30): 133 % of control

SMILES: CCN(C)N=Nc1ccc(C(N)=O)cc1
- survivor count (T/C endpoint: median tumor weight change, dose: 500.0 mg/kg/injection, schedule: Q01DX001 (ip), vehicle: Klucel (hydroxypropylcellulose) (HPC)): 3 of 10 on day 27
- survivor count (T/C endpoint: median tumor weight change, dose: 800.0 mg/kg/injection, schedule: Q01DX001 (ip), vehicle: Klucel (hydroxypropylcellulose) (HPC)): 0 of 10 on day 28

SMILES: CC(=O)O[C@@H]1[C@@H](O)C2=C3[C@]4(C)[C@@H]1C(C)(C)C(=O)C[C@@H]4[C@]3(O)[C@H](OC(C)=O)[C@@]1(C[C@@H]1C)C2=O
- T/C [1]: 140 % of control [9 of 10 alive]

SMILES: CS(=O)(=O)Nc1ccc(C(=O)CCN2CCCCCC2)cc1
- survivor count (T/C endpoint: median tumor weight change, dose: 1000.0 mg/kg/injection, schedule: Q01DX001 (ip), vehicle: suspension in saline): 6 of 10 on day 29
- survivor count (T/C endpoint: median tumor weight change, dose: 2000.0 mg/kg/injection, schedule: Q01DX001 (ip), vehicle: suspension in saline): 6 of 10 on day 29

SMILES: O=C(CCCN1CCC(O)(c2cccc(C(F)(F)F)c2)CC1)c1ccc(F)cc1
- survivor count (T/C endpoint: median tumor weight (est.), dose: 100.0 mg/kg/injection, schedule: Q07DX005 (ip), vehicle: Klucel (hydroxypropylcellulose) (HPC)): 2 of 10 on day 30

SMILES: CCCC(=O)O
- survivor count (T/C endpoint: median tumor weight change, dose: 250.0 mg/kg/injection, schedule: Q01DX001 (ip), vehicle: saline): 0 of 10 on day 35
- survivor count (T/C endpoint: median tumor weight change, dose: 500.0 mg/kg/injection, schedule: Q01DX001 (ip), vehicle: saline): 0 of 10 on day 35
- survivor count (T/C endpoint: median tumor weight change, dose: 1000.0 mg/kg/injection, schedule: Q01DX001 (ip), vehicle: saline): 0 of 10 on day 35
- survivor count (T/C endpoint: median tumor weight change, dose: 2000.0 mg/kg/injection, schedule: Q01DX001 (ip), vehicle: saline): 0 of 10 on day 35
- survivor count (T/C endpoint: median tumor weight change, dose: 4000.0 mg/kg/injection, schedule: Q01DX001 (ip), vehicle: saline): 0 of 10 on day 35

SMILES: CC(/C=N/N=C(N)N)=N\N=C(N)N
- T/C (T/C endpoint: median tumor weight (est.), dose: 50.0 mg/kg/injection, schedule: Q07DX005 (ip), vehicle: saline, evaluated on day 30): 133 % of control

SMILES: S=C1CCCCN1
- survivor count (T/C endpoint: median tumor weight change, dose: 300.0 mg/kg/injection, schedule: Q01DX001 (ip), vehicle: distilled water + Tween-80 + alcohol): 2 of 10 on day 35
- survivor count (T/C endpoint: median tumor weight change, dose: 600.0 mg/kg/injection, schedule: Q01DX001 (ip), vehicle: distilled water + Tween-80 + alcohol): 0 of 10 on day 35

SMILES: CN=S(=O)(OCCCCCOS(=O)(=NC)c1ccccc1)c1ccccc1 (centres undefined)
- T/C (T/C endpoint: median tumor weight change, dose: 62.5 mg/kg/injection, schedule: Q01DX001 (ip), vehicle: saline with Tween-80, evaluated on day 40): 142 % of control
- survivor count (T/C endpoint: median tumor weight change, dose: 250.0 mg/kg/injection, schedule: Q01DX001 (ip), vehicle: saline with Tween-80): 2 of 10 on day 29
- survivor count [2]: 0 of 10 on day 29 and 3 of 5 on day 28

SMILES: COc1cc2oc(=O)ccc2cc1[C@@H]1OC(=O)C2(C)O[C@@H]12 (some centres undefined)
- T/C (T/C endpoint: median tumor weight (est.), dose: 1.88 mg/kg/injection, schedule: Q07DX005 (ip), vehicle: water, evaluated on day 30): 127 % of control [9 of 10 alive]

SMILES: COc1cccc2c1C(=O)c1c(O)c3c(c(O)c1C2=O)CC(O)(C(=O)CO)CC3OC1CC(N)C(O)C(C)O1 (centres undefined)
- survivor count (T/C endpoint: median tumor weight (est.), dose: 67.0 mg/kg/injection, schedule: Q07DX005 (ip), vehicle: water): 4 of 10

SMILES: COC(C(=O)C(O)C(C)O)C1Cc2cc3cc(OC4CC(OC(C)=O)C(OC5CC(O)C(OC)C(C)O5)C(C)O4)cc(O)c3c(O)c2C(=O)C1OC1CC(OC2CC(OC3CC(C)(O)C(OC(=O)C(C)C)C(C)O3)C(O)C(C)O2)C(O)C(C)O1 (centres undefined)
- T/C (T/C endpoint: median tumor weight (est.), dose: 0.25 mg/kg/injection, schedule: Q07DX005 (ip), vehicle: saline, evaluated on day 30): 142 % of control

SMILES: CS(=O)(=O)OCCCNCCCOS(C)(=O)=O
- survivor count (T/C endpoint: median tumor weight (est.), dose: 150.0 mg/kg/injection, schedule: Q07DX005 (ip), vehicle: saline): 1 of 10
- survivor count (T/C endpoint: median tumor weight (est.), dose: 300.0 mg/kg/injection, schedule: Q07DX005 (ip), vehicle: saline): 0 of 10 on day 30

SMILES: Nc1nc(-c2ccccc2)c(Br)c(=O)[nH]1
- survivor count [3]: 3 of 10 on day 31

SMILES: CCc1ccccc1N1CCN(C(=O)c2cc(OC)c(OC)c(OC)c2)CC1
- T/C (T/C endpoint: median tumor weight (est.), dose: 12.5 mg/kg/injection, schedule: Q07DX004 (ip), vehicle: Klucel (hydroxypropylcellulose) (HPC), evaluated on day 30): 143 % of control
- T/C (T/C endpoint: median tumor weight (est.), dose: 25.0 mg/kg/injection, schedule: Q07DX003 (ip), vehicle: Klucel (hydroxypropylcellulose) (HPC), evaluated on day 21): 138 % of control [9 of 10 alive]
- T/C (T/C endpoint: median tumor weight (est.), dose: 100.0 mg/kg/injection, schedule: Q07DX004 (ip), vehicle: Klucel (hydroxypropylcellulose) (HPC), evaluated on day 30): 143 % of control

SMILES: CCN1/C(=C/C=C/C=C/c2sc3ccccc3[n+]2CC)Sc2ccccc21
- survivor count (T/C endpoint: median tumor weight (est.), dose: 1.5 mg/kg/injection, schedule: Q07DX006 (ip), vehicle: saline): 3 of 10
- survivor count (T/C endpoint: median tumor weight (est.), dose: 3.0 mg/kg/injection, schedule: Q07DX006 (ip), vehicle: saline): 5 of 10
- survivor count (T/C endpoint: median tumor weight (est.), dose: 6.0 mg/kg/injection, schedule: Q07DX006 (ip), vehicle: saline): 1 of 10

SMILES: COc1ccc2nc3cc(Cl)ccc3c(NCCNCCNCCNc3c4ccc(Cl)cc4nc4ccc(OC)cc34)c2c1
- T/C [1]: 147 % of control
- T/C (T/C endpoint: median tumor weight (est.), dose: 50.0 mg/kg/injection, schedule: Q07DX005 (ip), vehicle: saline with Tween-80, evaluated on day 30): 131 % of control

SMILES: C[C@]12CCC(=O)C=C1CC[C@@H]1[C@@H]2C(=O)C[C@@]2(C)[C@H]1CC[C@]2(O)C(=O)CO
- survivor count (T/C endpoint: median tumor weight (est.), dose: 1600.0 mg/kg/injection, schedule: Q07DX005 (ip), vehicle: Klucel (hydroxypropylcellulose) (HPC)): 2 of 10 on day 30 and 6 of 10 on day 30
- survivor count (T/C endpoint: median tumor weight change, dose: 4000.0 mg/kg/injection, schedule: Q01DX001 (ip), vehicle: Klucel (hydroxypropylcellulose) (HPC)): 6 of 10 on day 29

SMILES: CC(=O)NC(Cc1ccc(F)cc1)C(=O)O (centres undefined)
- T/C (T/C endpoint: median tumor weight (est.), dose: 400.0 mg/kg/injection, schedule: Q07DX005 (ip), vehicle: saline with Tween-80, evaluated on day 30): 125 % of control
- survivor count (T/C endpoint: median tumor weight (est.), dose: 1600.0 mg/kg/injection, schedule: Q07DX005 (ip), vehicle: saline with Tween-80): 2 of 10 on day 30

SMILES: C=C(C)[C@H]1Cc2c(ccc3c2O[C@@H]2COc4cc(OC)c(OC)cc4[C@@H]2C3=O)O1
- survivor count (T/C endpoint: median tumor weight (est.), dose: 64.0 mg/kg/injection, schedule: Q07DX005 (ip), vehicle: saline): 1 of 10

SMILES: CC1=C(/C=C/C(C)=C/C=C/C(C)=C/CO)C(C)(C)CCC1
- T/C (T/C endpoint: median tumor weight (est.), dose: 32.0 mg/kg/injection, schedule: Q07DX005 (ip), vehicle: saline with Tween-80, evaluated on day 30): 134 % of control

SMILES: CCCCC[C@H](O)/C=C/[C@@H]1[C@@H](C/C=C\CCCC(=O)O)[C@@H](O)C[C@H]1O
- survivor count (T/C endpoint: mean tumor weight, dose: 640.0 mg/kg/injection, schedule: Q01DX001 (iv), vehicle: saline): 5 of 10

SMILES: CCCCCCCCCCCCCCCCCC(=O)Nc1ccn(C2OC(CO)C(O)C2O)c(=O)n1 (centres undefined)
- survivor count (T/C endpoint: median tumor weight (est.), dose: 180.0 mg/kg/injection, schedule: Q07DX005 (ip), vehicle: saline with Tween-80): 1 of 10 on day 30
- survivor count (T/C endpoint: median tumor weight (est.), dose: 400.0 mg/kg/injection, schedule: Q07DX005 (ip), vehicle: suspension in saline): 1 of 10 on day 30

SMILES: O=c1[nH]cccc1O
- survivor count [2]: 5 of 10 on day 46
- survivor count (T/C endpoint: median tumor weight change, dose: 1000.0 mg/kg/injection, schedule: Q01DX001 (ip), vehicle: saline with Tween-80): 0 of 10 on day 46
- survivor count [3]: 0 of 10 on day 46

SMILES: CCC1CC2CN(CCc3c([nH]c4ccccc34)C(C(=O)OC)(c3cc4c(cc3OC)N(C)C3C(O)(C(=O)OC)C(OC(C)=O)C5(CC)C=CCN6CCC43C65)C2)C1 (centres undefined)
- T/C (T/C endpoint: median tumor weight change, dose: 2.5 mg/kg/injection, schedule: Q01DX001 (ip), vehicle: saline, evaluated on day 28): 135 % of control
- T/C (T/C endpoint: median tumor weight change, dose: 10.0 mg/kg/injection, schedule: Q01DX001 (ip), vehicle: saline, evaluated on day 28): 130 % of control
- survivor count (T/C endpoint: median tumor weight change, dose: 20.0 mg/kg/injection, schedule: Q01DX001 (ip), vehicle: saline): 5 of 10 on day 39
- survivor count (T/C endpoint: median tumor weight change, dose: 40.0 mg/kg/injection, schedule: Q01DX001 (ip), vehicle: saline): 1 of 10 on day 39
- survivor count (T/C endpoint: median tumor weight change, dose: 80.0 mg/kg/injection, schedule: Q01DX001 (ip), vehicle: saline): 0 of 10 on day 39

SMILES: Nc1ncn(C2OC(CO)C(O)C2O)c(=O)n1 (centres undefined)
- survivor count (T/C endpoint: median tumor weight (est.), dose: 32.0 mg/kg/injection, schedule: Q07DX005 (ip), vehicle: saline): 5 of 10
- survivor count (T/C endpoint: median tumor weight (est.), dose: 32.0 mg/kg/injection, schedule: Q07DX005 (ip), vehicle: suspension in saline): 5 of 10
- survivor count (T/C endpoint: median tumor weight (est.), dose: 64.0 mg/kg/injection, schedule: Q07DX005 (ip), vehicle: suspension in saline): 4 of 10
- survivor count (T/C endpoint: median tumor weight (est.), dose: 128.0 mg/kg/injection, schedule: Q07DX005 (ip), vehicle: suspension in saline): 4 of 10
- survivor count (T/C endpoint: median tumor weight change, dose: 135.0 mg/kg/injection, schedule: Q01DX001 (ip), vehicle: saline): 6 of 10 on day 36
